These are yes or no findings as the source states them, for the method shown. Binding calls can cover weak binding; strength is not graded here.
Key:
[1] = molecular target: GST-OsPRMT6b (Oryza sativa L. ssp. Japonica, Nipponbare) (UniProt Q7XKC0); experiment: pull-down; about 2 µg of resin-bound (glutathione-Sepharose) GST or GST-OsPRMT6b as bait, same amount of eluted MBP-HIS or MBP-HIS-OsPRMT6a as prey; washed with modified RIPA buffer (20 mM Tris/HCl pH 7.5, 150 mM NaCl, 5 mM EDTA, 1% Nonidet P40, 0.5% sodium deoxycholate); blot with MBP antiserum (Figure 5B); both purified
[2] = molecular target: MBP-HIS-OsPRMT6a (Oryza sativa L. ssp. Japonica, Nipponbare) (UniProt Q75G68); experiment: pull-down; about 2 µg of resin-bound (HIS resin) MBP-HIS or MBP-HIS-OsPRMT6a as bait, same amount of eluted GST or GST-OsPRMT6b as prey; washed with modified RIPA buffer (20 mM Tris/HCl pH 7.5, 150 mM NaCl, 5 mM EDTA, 1% Nonidet P40, 0.5% sodium deoxycholate); blot with GST antiserum (Figure 5A); both …

Chains of the proteins cited; added tags and fusions are not shown. Lines headed by an entry give the natural chain unless they say otherwise; changes in a name come on top.
UniProt Q7XKC0: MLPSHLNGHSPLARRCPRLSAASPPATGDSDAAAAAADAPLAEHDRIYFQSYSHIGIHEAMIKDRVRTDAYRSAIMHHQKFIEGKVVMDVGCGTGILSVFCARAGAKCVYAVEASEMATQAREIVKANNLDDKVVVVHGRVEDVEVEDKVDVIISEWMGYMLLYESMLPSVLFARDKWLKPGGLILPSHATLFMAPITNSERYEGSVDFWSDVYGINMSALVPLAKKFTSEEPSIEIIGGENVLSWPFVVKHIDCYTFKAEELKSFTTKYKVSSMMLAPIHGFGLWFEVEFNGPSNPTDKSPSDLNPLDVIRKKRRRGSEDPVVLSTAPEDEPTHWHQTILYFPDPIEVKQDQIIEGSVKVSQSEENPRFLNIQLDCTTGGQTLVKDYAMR
UniProt Q75G68: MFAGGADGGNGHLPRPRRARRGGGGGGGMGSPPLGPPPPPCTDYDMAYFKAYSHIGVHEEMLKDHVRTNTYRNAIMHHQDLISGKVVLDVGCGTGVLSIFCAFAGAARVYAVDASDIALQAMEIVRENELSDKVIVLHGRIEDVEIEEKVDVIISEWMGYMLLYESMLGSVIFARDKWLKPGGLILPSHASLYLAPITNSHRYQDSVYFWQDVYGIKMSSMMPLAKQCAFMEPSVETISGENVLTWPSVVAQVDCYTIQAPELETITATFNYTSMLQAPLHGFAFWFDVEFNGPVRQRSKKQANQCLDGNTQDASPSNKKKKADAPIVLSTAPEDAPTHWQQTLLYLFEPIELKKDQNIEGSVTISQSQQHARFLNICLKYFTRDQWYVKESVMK

binding [1] | binding [2] | Substance
binds | – | MBP-HIS-OsPRMT6a (from UniProt Q75G68) (enzyme)
– | binds | GST-OsPRMT6b (from UniProt Q7XKC0) (enzyme)
